{"source": "patent EP2439197A1", "about": "“Substituted benzimidazole derivatives as melanocortin 4 receptor antagonists” (Santhera Pharmaceuticals (Schweiz) AG, priority 2010, dated 2012)", "origin": "cited, not measured here", "settings": "control compounds of Caco-2 assay; Zhao et al. 2001; cited from earlier work", "data": [{"compound": "CC(C)NCC(O)COc1ccc(CC(N)=O)cc1", "note": "(stereo not shown) [atenolol]", "values": [{"measurement": "human absorption", "result": "approximately 50%"}]}]}
